Results: US20170290774A1, “NEUROKININ-1 RECEPTOR ANTAGONIST COMPOSITION FOR TREATMENT OF DISEASES AND CONDITIONS OF THE RESPIRATORY TRACT” (PLUS VITECH, S.L., priority 2014, published 2017)
For some assays here: The name of at least one read-out is uncertain. For some assays here: At least one structure is not confirmed: it was looked up by name or label, or the drawing left a doubt.

How the values were obtained:
Format in all cases: physicochemical
[1] = Solubilisation of aprepitant (pure or microencapsulated in cellulose) in extra virgin olive oil; conditions: 10 to 125 mg/mL, 25° C., 1-24 hours
[2] = Solubilisation of aprepitant in 69% ethanolic solution of oleic acid; conditions: oleic acid (0.69 mL) in ethanol (0.31 mL), 10 to 125 mg/mL, 25° C.
[3] = Solubilisation of aprepitant in polyethyleneglycol, vegetal glycerine, apple aroma and water; conditions: apple aroma, water, 10 to 125 mg/mL, 25° C.
[4] = Saturation concentration of NK1 receptor antagonists in olive oil; conditions: 25° C.
Method: (§1) Each of said mixtures was continuously and gently stirred for 10 minutes at ambient temperature (25° C.) and then maintained at rest for 60 minutes. The saturation concentration was considered to be that which was immediately lower in the aforementioned series than a concentration where deposition was observed, but in which no deposition of the active ingredient was observed.

[5] = Saturation concentration in olive oil:ethanol (9:1); conditions: 25° C.
Method: as §1, with “less” for “lower in the aforementioned series”

[6] = Saturation concentration in different oils (soy, sunflower, rapeseed); conditions: 25° C.
Method: as §1, with “less” for “lower in the aforementioned series”

Structure (SMILES): C[C@@H](OC1OCCN(Cc2nc(=O)[nH][nH]2)C1c1ccc(F)cc1)c1cc(C(F)(F)F)cc(C(F)(F)F)c1 (stereo in doubt) [Aprepitant, 5-([(2R,3S)-2-((R)-1-[3,5-bis(trifluoromethyl)phenyl]ethoxy)-3-(4-fluorophenyl)morpholino]methyl)-1H-1,2,4-triazol-3(2H)-one]
- Solubilisation in composition [1]: completely solubilized
- Solubilisation in composition [2]: completely solubilized
- Solubilisation in composition [3]: completely solubilized

Structure (SMILES): C[C@H](c1cc(C(F)(F)F)cc(C(F)(F)F)c1)N(C)C(=O)N1CCNC[C@@H]1c1ccc(F)cc1C(F)(F)F [Vestipitant]
- Saturation concentration [4]: 60 nM
- Saturation concentration [5]: 80 nM
- Saturation concentration ([6]; Rapeseed oil): 70 nM
- Saturation concentration ([6]; Soy oil): 80 nM
- Saturation concentration ([6]; Sunflower oil): 80 nM
